The assay addresses T1, HDAC3 (UniProt O88895).
T1 sequence: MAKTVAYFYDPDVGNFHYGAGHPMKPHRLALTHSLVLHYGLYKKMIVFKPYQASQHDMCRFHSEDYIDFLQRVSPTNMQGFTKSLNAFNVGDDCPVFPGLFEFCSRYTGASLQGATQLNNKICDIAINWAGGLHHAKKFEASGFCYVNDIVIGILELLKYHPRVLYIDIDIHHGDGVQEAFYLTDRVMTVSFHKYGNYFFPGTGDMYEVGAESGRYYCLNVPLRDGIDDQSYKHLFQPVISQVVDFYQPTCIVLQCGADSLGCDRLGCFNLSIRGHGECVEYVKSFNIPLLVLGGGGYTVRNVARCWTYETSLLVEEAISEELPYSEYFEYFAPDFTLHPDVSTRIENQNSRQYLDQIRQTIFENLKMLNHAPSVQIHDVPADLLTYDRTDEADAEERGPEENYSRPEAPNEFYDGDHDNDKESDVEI
Briefly: co-IP; cell lysate under LPS stimulation; 300 µg protein, 1 µg specific antibody overnight at 4°C, Protein A/G beads 2 h at 4°C, five washes with IP lysis buffer, Western blot. On the technique in general: Immunoblotting shows a protein as a band on a membrane.

By UniProt entry, the sequences of proteins in these tests, tags left out.
UniProt Q03267: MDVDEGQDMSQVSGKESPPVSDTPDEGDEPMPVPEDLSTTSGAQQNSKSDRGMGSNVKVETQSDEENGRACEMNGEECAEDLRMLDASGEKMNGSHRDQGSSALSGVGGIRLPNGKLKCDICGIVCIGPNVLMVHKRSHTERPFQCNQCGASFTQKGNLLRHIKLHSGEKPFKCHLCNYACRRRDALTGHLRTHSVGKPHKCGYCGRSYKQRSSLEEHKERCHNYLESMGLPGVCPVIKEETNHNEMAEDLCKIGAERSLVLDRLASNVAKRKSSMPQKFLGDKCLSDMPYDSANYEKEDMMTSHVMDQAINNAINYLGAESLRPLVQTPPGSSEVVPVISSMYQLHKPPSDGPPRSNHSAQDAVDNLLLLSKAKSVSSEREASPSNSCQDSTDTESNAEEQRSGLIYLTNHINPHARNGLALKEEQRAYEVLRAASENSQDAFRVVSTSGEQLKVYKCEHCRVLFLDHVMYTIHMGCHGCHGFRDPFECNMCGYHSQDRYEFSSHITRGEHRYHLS

These are yes or no findings as the source states them, for the method shown. In cells and extracts the contact can be indirect. Some entries that bind do so weakly or less than the wild type.

Our source for the binding values is article PMC12463629.

With “Ikaros family zinc finger 1 (IKZF1) (from UniProt Q03267 1-517)”, the binding entry was “binds”.
